From article doi:10.1101/2025.06.12.659263
Where two headings read alike, the source gives them in different places. These are yes or no findings as the source states them, for the method shown. Binding seen in cells or lysates may run through a third protein. Some binding calls cover weakened binding; strength is not graded here.

Sequences of proteins named here, by UniProt entry; tags and fusion partners are left off. A change or cut given only in a name is not applied to a line headed by its entry. A line that says so, or that is headed by a name, gives the form on record, which may keep a tag or linker. Residues count along the entry.
UniProt P23201: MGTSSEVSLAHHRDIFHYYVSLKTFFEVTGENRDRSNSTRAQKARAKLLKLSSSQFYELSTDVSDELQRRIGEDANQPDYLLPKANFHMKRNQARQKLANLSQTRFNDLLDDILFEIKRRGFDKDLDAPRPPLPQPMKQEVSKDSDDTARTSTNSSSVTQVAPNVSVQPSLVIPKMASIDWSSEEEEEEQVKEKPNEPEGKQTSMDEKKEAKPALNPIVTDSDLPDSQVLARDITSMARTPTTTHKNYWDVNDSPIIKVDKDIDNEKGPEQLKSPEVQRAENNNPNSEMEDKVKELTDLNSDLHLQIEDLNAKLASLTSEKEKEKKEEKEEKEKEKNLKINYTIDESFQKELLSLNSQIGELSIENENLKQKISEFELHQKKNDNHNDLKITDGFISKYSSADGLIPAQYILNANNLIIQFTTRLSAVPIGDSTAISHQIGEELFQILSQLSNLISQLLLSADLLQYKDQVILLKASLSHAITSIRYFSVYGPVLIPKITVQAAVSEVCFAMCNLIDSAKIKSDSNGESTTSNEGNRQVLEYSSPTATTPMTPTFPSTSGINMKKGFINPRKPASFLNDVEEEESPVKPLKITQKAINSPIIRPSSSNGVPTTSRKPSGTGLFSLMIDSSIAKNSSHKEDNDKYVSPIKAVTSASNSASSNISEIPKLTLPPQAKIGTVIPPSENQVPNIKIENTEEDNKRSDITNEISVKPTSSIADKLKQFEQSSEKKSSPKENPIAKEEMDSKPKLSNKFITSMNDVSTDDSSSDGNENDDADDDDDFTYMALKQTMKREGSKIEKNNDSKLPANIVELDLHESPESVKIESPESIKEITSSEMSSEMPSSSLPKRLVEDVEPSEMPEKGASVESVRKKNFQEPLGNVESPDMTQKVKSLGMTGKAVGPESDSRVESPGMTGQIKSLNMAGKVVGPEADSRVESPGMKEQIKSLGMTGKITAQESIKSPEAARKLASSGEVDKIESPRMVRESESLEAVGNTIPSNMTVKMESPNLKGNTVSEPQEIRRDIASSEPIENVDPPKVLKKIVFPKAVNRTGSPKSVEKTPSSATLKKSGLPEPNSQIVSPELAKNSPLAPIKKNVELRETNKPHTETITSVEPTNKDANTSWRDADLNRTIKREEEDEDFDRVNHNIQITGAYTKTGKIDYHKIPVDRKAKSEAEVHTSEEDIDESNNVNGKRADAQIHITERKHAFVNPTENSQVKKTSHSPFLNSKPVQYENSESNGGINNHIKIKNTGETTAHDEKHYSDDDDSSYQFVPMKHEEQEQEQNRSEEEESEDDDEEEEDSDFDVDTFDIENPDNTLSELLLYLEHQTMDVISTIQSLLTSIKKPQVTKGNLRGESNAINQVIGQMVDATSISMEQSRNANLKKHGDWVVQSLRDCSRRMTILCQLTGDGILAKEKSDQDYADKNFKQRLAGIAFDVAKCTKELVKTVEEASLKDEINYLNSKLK
SHD1CRU: residues 1-124 of P23201
SHD1CRU L109A (P23201, form named): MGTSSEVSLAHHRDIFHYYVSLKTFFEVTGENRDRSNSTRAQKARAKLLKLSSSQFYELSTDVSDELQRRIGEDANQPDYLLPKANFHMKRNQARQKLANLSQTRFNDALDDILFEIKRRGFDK
SHD1CRU L101A (P23201, form named): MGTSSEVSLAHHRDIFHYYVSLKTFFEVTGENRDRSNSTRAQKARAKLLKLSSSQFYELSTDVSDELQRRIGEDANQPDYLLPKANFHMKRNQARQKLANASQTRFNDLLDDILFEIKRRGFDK
SHD1CRU L51A (P23201, form named): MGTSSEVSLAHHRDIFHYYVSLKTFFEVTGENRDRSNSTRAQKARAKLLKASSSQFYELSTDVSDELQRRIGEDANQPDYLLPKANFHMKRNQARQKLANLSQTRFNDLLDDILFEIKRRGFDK
SHD1CRU L48A (P23201, form named): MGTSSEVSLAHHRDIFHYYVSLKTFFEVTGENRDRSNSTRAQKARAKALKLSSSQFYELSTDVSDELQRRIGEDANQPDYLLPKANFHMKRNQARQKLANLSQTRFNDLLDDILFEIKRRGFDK
SHD1_(K97D) (P23201, form named): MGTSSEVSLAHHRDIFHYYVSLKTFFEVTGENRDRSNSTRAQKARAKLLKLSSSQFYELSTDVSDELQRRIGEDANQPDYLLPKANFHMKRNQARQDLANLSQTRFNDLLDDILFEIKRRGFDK
UniProt Q12317: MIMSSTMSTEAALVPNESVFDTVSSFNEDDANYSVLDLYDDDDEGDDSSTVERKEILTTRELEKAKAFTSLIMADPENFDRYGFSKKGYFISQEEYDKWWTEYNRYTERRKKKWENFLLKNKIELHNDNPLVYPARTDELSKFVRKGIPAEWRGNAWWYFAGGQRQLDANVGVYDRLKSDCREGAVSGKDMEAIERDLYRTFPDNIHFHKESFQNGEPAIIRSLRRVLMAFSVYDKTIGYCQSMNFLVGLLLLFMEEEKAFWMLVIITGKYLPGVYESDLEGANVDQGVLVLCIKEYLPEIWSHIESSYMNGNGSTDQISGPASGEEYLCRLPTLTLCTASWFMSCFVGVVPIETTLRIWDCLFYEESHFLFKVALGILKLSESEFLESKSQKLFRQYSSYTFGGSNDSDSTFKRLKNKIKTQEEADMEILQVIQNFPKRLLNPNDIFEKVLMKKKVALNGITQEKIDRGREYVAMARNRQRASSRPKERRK
UniProt P32490: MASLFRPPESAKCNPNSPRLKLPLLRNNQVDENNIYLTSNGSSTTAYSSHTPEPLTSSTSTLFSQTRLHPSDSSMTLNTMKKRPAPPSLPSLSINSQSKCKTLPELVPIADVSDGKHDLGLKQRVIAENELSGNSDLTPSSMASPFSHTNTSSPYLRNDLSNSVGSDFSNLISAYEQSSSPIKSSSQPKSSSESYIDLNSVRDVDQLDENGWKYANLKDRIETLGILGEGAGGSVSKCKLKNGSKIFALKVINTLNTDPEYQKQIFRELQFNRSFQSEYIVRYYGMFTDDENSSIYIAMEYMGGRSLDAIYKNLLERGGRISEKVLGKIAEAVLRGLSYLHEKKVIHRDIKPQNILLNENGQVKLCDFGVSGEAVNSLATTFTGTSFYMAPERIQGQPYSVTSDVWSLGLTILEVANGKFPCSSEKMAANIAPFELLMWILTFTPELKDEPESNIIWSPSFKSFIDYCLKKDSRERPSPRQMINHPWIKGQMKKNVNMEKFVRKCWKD
UniProt Q08729: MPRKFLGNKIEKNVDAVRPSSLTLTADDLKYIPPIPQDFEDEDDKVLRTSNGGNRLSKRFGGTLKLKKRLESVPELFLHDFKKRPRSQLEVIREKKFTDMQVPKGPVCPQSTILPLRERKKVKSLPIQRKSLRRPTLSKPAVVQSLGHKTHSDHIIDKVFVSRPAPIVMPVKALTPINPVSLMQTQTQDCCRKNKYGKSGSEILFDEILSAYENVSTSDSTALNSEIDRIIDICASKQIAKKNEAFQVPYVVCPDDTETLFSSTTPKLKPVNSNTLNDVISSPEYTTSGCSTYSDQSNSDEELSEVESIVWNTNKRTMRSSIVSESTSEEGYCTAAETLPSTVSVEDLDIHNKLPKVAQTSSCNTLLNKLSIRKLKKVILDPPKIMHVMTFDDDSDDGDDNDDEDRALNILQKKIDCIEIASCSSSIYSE

How the values were obtained:
Assay in all cases: split reporter
SHD1CRU (S. cerevisiae) [1] = biological target: SHD1CRU (S. cerevisiae) (UniProt P23201)
SHD1CRU (S. cerevisiae) [2] = biological target: SHD1CRU (S. cerevisiae) (UniProt P23201); remark: listed apart in the source
[3] = biological target: Msb4_(22-81Δ35-39)-Spa2CRU (S. cerevisiae) (UniProt Q12317+P23201)
Spa2CRU (S. cerevisiae) [4] = biological target: Spa2CRU (S. cerevisiae) (UniProt P23201)
[5] = biological target: Msb4_(22-81)-Spa2CRU (S. cerevisiae) (UniProt Q12317+P23201)
[6] = biological target: SHD1CRU L109A (S. cerevisiae) (UniProt P23201)
[7] = biological target: SHD1CRU L101A (S. cerevisiae) (UniProt P23201)
SHD1CRU (S. cerevisiae) [8] = biological target: SHD1CRU (S. cerevisiae) (UniProt P23201); remark: listed apart in the source
[9] = biological target: Mkk1_(143–202)SHD1CRU (S. cerevisiae) (UniProt P32490+P23201)
[10] = biological target: Dse3_(181-240Δ208-212)SHD1CRU (S. cerevisiae) (UniProt Q08729+P23201)
[11] = biological target: SHD1CRU L51A (S. cerevisiae) (UniProt P23201)
[12] = biological target: SHD1CRU L48A (S. cerevisiae) (UniProt P23201)
[13] = biological target: SHD1_(K97D) (S. cerevisiae) (UniProt P23201)
Ste5CRU (S. cerevisiae) = biological target: T1, Ste5CRU (S. cerevisiae) (UniProt P32917)
T1 sequence: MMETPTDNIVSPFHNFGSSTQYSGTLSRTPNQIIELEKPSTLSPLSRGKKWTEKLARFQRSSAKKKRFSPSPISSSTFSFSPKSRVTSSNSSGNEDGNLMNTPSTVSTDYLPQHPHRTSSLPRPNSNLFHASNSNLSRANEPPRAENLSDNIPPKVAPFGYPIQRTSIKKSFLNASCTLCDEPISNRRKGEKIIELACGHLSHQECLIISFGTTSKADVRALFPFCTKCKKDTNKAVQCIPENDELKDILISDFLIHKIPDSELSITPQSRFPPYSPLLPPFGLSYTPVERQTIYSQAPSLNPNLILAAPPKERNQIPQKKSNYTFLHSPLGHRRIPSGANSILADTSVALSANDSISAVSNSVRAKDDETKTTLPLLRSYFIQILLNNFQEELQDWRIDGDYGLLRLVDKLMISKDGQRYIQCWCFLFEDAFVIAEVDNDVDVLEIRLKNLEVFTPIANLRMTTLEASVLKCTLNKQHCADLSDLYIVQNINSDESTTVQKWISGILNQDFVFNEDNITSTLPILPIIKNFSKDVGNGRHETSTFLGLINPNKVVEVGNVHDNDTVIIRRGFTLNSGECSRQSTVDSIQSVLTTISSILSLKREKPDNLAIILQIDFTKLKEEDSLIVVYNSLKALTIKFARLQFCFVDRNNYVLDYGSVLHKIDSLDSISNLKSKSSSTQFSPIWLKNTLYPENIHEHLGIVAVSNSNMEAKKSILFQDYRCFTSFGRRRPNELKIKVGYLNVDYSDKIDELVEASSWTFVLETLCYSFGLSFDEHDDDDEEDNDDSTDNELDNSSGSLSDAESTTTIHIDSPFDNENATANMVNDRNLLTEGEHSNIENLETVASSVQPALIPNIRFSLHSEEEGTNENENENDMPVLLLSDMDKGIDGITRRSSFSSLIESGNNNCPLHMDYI

Spa2CRU (S. cerevisiae) [14] = biological target: Spa2CRU (S. cerevisiae) (UniProt P23201); remark: listed apart in the source

B1: Nub-Msb3 (protein, UniProt P48566 1-633)
chain: MQNDQQRFSLQNRTVLAHPYKRLGGAFTVKSPSVPNFHDKMHSDHSSSDSALVNGSFRANDHRSVEPSCLGQASPSEHDGNLSVIDLYGDEVESQRAEGEDDDDNNGDNGNEDLEEVHSDDLDLVPDDDNRQRVELEGAASATSANSNGINNTHFDRYGFKKQNNYISEAEYDKWWVEYSQYCVRRKHKWQLLLEKSGLPVTDDSPSRFPSKSERLKRYVRKGIPAEWRGNAWWHFARGQEKLNKNKGVYSQLLRKMKQIKKQNPNEKQVQDLDIIERDLNRTFPDNIHFQSSLHNKEGPPIIKSLRRVLVAFSLYNPKIGYCQSMNFLAGLLLLFLDEERAFWMLVIITSRYLPGVHNINLEGVNIDQGVLMLCVKEYIPEVWSYIKPSIDHHQKNNKTFSPSNKKVLFNMQKNEFLYRLPPITLCTASWFMSCFVGVVPIETTLRIWDCLFYEESHFLFKVSLAVLKLSEHDLSKIKPRNNSLNYSWGSNLNQRGGSMGQEDSDMEIFQVIQTFPKTLLNPNEIFEKIIFKRRFNLNRLDQDEIDRCRKFVAAQRLKFKTYGELLGNSTSEADLPINDNTDNKGIHITSDAVNEALSSEVYGFKKSLAGVHWNNSIKEKVKQMRKKKDKGD
SHD1CRU (S. cerevisiae) [1]
  binding: binds
SHD1CRU (S. cerevisiae) [2]
  binding: binds
[3]
  binding: binds
Spa2CRU (S. cerevisiae) [4]
  binding: binds
[5]
  binding: no binding
[6]
  binding: no binding
[7]
  binding: no binding
SHD1CRU (S. cerevisiae) [8]
  binding: binds
[9]
  binding: no binding
[10]
  binding: binds
[11]
  binding: no binding
[12]
  binding: no binding
[13]
  binding: no binding

B2: Nub-Ste7 (protein, UniProt P06784 1-515)
chain: MFQRKTLQRRNLKGLNLNLHPDVGNNGQLQEKTETHQGQSRIEGHVMSNINAIQNNSNLFLRRGIKKKLTLDAFGDDQAISKPNTVVIQQPQNEPVLVLSSLSQSPCVSSSSSLSTPCIIDAYSNNFGLSPSSTNSTPSTIQGLSNIATPVENEHSISLPPLEESLSPAAADLKDTLSGTSNGNYIQLQDLVQLGKIGAGNSGTVVKALHVPDSKIVAKKTIPVEQNNSTIINQLVRELSIVKNVKPHENIITFYGAYYNQHINNEIIILMEYSDCGSLDKILSVYKRFVQRGTVSSKKTWFNELTISKIAYGVLNGLDHLYRQYKIIHRDIKPSNVLINSKGQIKLCDFGVSKKLINSIADTFVGTSTYMSPERIQGNVYSIKGDVWSLGLMIIELVTGEFPLGGHNDTPDGILDLLQRIVNEPSPRLPKDRIYSKEMTDFVNRCCIKNERERSSIHELLHHDLIMKYVSPSKDDKFRHWCRKIKSKIKEDKRIKREALDRAKLEKKQSERSTH
SHD1CRU (S. cerevisiae) [1]
  binding: binds
Ste5CRU (S. cerevisiae)
  binding: binds
[6]
  binding: no binding
[7]
  binding: no binding
SHD1CRU (S. cerevisiae) [8]
  binding: binds
[11]
  binding: no binding
Spa2CRU (S. cerevisiae) [14]
  binding: no binding
[12]
  binding: no binding
[13]
  binding: binds
